Drawing on publication doi:10.1101/2025.04.19.649636, this text covers binding for 1 molecule.

Amino acid sequences for entries named in this document (tags omitted). Residues count along the entry.
UniProt Q96CG8, residues 31-243: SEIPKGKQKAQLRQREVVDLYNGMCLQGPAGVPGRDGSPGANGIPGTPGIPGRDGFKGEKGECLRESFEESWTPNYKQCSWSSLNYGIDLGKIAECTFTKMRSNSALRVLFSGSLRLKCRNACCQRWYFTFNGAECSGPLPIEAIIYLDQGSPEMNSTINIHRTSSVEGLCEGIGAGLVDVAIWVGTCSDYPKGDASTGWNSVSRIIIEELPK

This assay addresses recombinant human CTHRC1 Protein (human) (UniProt Q96CG8). As to the kind of experiment: affinity purification with mass spectrometry.

These are yes or no findings as the source states them, for the method shown. In cells and extracts the contact can be indirect. A yes stands for co-enrichment or nearness to the bait. Other partners may have been found.

B1: ADAM metallopeptidase domain 9 (ADAM9) of MOVAS cells (protein, UniProt Q61072 30-845)
chain: GRPDLEQTVHLSSYEIITPWRLTRERREALGPSSQQISYVIQAQGKQHIIHLERNTDLLPNDFVVYTYDKEGSLLSDHPNVQSHCHYRGYVEGVQNSAVAVSACFGLRGLLHLENASFGIEPLHNSSHFEHIFYPMDGIHQEPLRCGVSNRDTEKEGTQGDEEEHPSVTQLLRRRRAVLPQTRYVELFIVVDKERYDMMGRNQTAVREEMIRLANYLDSMYIMLNIRIVLVGLEIWTDRNPINIIGGAGDVLGNFVQWREKFLITRWRHDSAQLVLKKGFGGTAGMAFVGTVCSRSHAGGINVFGQITVETFASIVAHELGHNLGMNHDDGRECFCGAKSCIMNSGASGSRNFSSCSAEDFEKLTLNKGGSCLLNIPKPDEAYSAPSCGNKLVDPGEECDCGTAKECEVDPCCEGSTCKLKSFAECAYGDCCKDCQFLPGGSMCRGKTSECDVPEYCNGSSQFCPPDVFIQNGYPCQNSKAYCYNGMCQYYDAQCQVIFGSKAKAAPRDCFIEVNSKGDRFGNCGFSGSEYKKCATGNALCGKLQCENVQDMPVFGIVPAIIQTPSRGTKCWGVDFQLGSDVPDPGMVNEGTKCDAGKICRNFQCVNASVLNYDCDIQGKCHGHGVCNSNKNCHCEDGWAPPHCDTKGYGGSVDSGPTYNAKSTALRDGLLVFFFLIVPLVAAAIFLFIKRDELRKTFRKKRSQMSDGRNQANVSRQPGDPSISRPPGGPNVSRPPGGPGVSRPPGGPGVSRPPGGPGVSRPPPGHGNRFPVPTYAAKQPAQFPSRPPPPQPKISSQGNLIPARPAPAPPLYSSLT
As to B1, the binding result is given as “binds”.
